Measured values as given in the supplement of paper PMC10849652.
Some of the results follow.

Chains of the proteins cited; added tags and fusions are not shown. Lines headed by an entry give the natural chain unless they say otherwise; changes in a name come on top.
UniProt O95715: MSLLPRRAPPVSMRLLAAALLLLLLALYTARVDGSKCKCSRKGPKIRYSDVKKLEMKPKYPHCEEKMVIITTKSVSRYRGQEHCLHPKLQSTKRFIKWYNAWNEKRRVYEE
UniProt P52943: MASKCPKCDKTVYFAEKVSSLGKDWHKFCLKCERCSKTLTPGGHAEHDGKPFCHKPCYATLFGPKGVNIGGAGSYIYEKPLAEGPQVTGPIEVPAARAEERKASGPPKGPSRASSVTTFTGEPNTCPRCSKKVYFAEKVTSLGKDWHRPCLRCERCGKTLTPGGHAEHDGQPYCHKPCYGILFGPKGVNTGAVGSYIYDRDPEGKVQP
UniProt O60888: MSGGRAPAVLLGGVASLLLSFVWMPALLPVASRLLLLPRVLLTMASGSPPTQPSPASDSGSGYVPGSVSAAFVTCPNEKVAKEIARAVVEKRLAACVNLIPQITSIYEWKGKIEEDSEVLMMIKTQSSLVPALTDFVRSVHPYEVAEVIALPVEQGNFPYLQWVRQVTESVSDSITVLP
UniProt Q9GZU7: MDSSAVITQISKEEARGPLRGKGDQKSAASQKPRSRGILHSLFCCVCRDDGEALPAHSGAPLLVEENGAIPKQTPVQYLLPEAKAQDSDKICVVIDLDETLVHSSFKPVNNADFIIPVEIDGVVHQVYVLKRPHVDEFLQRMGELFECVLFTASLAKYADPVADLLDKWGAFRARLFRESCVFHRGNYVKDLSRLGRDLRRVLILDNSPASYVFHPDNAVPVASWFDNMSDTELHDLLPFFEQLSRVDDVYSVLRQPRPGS
UniProt P49711: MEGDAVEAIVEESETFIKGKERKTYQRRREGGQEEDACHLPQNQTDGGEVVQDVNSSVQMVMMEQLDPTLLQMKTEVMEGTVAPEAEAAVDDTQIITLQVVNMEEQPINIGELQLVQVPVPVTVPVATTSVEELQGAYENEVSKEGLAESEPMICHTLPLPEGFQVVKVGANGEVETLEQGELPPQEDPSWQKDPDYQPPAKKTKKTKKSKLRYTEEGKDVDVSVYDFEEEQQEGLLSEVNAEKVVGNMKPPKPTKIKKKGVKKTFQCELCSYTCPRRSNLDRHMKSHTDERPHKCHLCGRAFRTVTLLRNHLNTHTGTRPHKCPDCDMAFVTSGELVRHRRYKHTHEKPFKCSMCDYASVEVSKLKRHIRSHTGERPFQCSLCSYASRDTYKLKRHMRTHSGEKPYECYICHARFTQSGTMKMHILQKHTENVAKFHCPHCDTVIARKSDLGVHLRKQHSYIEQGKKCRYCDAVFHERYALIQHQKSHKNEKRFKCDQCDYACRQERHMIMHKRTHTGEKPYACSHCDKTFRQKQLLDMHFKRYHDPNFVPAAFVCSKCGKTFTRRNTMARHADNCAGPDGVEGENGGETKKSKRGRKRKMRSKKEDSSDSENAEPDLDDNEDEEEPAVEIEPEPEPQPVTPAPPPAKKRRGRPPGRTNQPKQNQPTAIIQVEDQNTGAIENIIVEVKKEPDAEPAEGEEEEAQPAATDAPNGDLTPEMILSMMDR
UniProt P39880: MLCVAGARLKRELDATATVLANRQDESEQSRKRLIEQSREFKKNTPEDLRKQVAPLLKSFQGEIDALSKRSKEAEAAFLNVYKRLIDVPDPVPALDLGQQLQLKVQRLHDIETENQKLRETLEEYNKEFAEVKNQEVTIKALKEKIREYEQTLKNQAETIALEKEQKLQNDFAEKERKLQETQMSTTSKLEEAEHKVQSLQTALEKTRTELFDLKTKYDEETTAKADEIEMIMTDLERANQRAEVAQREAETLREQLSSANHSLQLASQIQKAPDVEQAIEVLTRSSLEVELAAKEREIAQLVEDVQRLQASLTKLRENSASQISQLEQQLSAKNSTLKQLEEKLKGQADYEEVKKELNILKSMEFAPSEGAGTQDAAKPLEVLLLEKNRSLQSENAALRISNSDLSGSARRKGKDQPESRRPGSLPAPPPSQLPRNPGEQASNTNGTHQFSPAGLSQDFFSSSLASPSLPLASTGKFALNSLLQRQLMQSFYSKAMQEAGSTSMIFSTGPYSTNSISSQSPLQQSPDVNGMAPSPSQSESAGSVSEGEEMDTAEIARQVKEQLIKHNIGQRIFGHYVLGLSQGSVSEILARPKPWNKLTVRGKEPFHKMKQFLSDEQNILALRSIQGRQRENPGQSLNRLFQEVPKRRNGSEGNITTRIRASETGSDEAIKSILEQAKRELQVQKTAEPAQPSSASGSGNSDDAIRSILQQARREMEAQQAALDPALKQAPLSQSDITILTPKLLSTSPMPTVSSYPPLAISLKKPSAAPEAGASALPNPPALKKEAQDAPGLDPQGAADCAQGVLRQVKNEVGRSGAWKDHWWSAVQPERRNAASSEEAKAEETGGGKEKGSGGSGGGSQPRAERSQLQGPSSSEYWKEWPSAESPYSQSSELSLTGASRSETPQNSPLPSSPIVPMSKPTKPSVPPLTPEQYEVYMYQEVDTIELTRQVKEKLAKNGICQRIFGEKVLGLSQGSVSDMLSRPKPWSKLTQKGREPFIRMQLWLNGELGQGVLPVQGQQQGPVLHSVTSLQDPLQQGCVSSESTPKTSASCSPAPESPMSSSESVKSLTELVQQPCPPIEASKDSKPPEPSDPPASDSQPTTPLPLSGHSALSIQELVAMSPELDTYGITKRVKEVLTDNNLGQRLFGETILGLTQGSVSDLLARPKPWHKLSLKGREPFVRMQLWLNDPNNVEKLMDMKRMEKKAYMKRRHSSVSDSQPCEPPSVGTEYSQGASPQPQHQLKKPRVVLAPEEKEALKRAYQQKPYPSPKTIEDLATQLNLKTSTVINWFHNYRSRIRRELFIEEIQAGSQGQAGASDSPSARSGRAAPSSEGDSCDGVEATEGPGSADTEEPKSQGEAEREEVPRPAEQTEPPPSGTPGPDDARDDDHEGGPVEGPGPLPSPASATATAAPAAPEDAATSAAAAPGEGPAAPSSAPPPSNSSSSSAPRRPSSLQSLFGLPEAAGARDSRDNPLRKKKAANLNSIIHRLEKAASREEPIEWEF
UniProt Q96SW2: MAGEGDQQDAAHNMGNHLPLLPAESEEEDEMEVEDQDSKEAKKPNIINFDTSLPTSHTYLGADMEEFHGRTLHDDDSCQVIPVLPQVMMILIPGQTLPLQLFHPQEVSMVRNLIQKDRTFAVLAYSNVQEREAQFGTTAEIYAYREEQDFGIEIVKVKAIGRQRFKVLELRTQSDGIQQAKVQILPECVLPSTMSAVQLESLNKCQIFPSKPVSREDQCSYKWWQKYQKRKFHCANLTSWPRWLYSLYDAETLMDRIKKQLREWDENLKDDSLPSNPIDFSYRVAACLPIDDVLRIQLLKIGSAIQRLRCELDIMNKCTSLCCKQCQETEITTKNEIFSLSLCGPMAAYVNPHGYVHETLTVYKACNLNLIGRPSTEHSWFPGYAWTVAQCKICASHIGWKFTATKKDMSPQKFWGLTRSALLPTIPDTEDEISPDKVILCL
UniProt P46108: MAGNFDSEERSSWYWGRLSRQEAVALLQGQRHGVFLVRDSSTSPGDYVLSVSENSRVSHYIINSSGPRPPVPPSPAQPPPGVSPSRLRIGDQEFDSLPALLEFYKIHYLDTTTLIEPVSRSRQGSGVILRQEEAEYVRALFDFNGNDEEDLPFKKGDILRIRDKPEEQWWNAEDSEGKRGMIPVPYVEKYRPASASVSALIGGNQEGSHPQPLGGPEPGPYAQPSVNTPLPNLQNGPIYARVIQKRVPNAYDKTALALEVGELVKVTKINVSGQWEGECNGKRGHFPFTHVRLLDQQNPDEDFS
UniProt Q9Y6M4: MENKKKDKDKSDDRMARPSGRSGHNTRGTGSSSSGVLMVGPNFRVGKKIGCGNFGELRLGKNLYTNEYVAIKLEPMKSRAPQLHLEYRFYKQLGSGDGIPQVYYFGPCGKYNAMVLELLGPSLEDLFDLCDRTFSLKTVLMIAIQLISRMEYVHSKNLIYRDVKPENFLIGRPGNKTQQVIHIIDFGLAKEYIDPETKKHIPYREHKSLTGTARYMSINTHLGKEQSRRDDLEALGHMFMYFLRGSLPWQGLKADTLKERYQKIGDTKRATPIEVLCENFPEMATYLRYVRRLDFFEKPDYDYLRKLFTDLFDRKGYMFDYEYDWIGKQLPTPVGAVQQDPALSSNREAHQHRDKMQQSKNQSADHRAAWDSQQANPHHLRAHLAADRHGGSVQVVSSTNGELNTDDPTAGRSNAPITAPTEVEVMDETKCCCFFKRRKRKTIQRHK
UniProt Q9Y5B0: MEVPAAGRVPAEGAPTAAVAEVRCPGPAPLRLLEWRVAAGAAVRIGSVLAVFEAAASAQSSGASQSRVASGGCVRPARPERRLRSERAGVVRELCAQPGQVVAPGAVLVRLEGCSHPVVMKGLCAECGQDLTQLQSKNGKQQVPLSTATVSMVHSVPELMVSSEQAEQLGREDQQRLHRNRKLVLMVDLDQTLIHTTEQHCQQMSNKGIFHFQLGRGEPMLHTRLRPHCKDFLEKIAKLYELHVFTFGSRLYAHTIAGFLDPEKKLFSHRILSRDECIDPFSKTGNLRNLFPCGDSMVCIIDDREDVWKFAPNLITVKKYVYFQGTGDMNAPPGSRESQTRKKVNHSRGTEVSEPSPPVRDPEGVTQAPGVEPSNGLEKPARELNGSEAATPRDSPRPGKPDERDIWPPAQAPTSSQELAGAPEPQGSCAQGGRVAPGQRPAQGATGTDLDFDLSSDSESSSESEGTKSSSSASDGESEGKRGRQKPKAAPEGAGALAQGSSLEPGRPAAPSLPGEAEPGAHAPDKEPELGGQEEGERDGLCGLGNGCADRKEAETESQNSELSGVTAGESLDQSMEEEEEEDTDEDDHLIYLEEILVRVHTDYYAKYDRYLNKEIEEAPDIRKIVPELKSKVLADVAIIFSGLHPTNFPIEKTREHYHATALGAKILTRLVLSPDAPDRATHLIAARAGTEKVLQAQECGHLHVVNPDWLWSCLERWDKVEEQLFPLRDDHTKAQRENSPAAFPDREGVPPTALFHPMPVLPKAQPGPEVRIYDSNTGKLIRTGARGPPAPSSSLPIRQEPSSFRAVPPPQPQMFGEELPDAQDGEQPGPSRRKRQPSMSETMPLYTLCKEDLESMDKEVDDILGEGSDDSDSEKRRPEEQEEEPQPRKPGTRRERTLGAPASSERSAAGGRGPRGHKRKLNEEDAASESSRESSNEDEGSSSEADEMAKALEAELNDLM
UniProt P67870, whole entry, looked up: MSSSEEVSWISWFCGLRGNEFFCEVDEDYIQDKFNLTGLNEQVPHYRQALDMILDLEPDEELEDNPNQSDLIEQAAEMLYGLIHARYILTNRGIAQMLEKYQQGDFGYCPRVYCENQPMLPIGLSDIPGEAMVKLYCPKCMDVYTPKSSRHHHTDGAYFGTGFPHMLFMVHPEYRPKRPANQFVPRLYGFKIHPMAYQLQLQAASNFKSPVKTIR
UniProt P35221: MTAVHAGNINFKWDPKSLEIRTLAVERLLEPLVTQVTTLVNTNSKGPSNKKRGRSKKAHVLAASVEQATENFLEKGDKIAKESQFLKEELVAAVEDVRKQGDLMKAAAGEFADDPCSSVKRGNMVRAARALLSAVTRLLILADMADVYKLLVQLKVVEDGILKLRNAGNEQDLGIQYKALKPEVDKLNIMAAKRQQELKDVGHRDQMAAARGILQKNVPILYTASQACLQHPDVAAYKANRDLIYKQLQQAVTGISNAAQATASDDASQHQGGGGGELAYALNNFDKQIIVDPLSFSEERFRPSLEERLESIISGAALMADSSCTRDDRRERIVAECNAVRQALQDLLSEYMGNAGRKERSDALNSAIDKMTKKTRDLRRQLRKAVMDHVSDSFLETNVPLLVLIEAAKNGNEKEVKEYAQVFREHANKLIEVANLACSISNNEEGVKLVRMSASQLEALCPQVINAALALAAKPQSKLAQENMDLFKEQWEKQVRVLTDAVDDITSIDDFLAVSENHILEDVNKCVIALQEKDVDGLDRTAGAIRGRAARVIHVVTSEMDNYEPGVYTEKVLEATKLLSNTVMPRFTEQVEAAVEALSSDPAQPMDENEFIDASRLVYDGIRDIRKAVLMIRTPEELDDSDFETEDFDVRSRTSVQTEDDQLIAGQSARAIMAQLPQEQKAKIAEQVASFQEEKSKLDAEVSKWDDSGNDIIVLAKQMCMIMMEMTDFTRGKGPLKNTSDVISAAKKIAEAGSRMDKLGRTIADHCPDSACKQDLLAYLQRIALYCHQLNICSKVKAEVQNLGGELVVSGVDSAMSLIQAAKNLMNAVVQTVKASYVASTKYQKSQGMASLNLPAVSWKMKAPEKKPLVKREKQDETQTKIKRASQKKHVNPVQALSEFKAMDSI
UniProt P99999: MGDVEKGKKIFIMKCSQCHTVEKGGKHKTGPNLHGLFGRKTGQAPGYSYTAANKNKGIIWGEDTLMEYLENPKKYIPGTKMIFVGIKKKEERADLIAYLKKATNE
UniProt P0DMU9: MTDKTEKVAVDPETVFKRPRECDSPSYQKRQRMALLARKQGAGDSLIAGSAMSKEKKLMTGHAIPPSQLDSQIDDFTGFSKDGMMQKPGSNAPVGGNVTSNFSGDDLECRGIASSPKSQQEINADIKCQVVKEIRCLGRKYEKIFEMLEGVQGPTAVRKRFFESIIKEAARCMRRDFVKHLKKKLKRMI

Legend:
Assay in all cases: log2 fold change, soluble protein after heating vs DMSO (PISA); higher = thermal stabilisation; K562 lysate, 10 uM; active = over 0.2 and 3.5 SD of the protein, either way, in both replicates (recomputed)
ibrutinib = compound: C=CC(=O)N1CCC[C@@H](n2nc(-c3ccc(Oc4ccccc4)cc3)c3c(N)ncnc32)C1 [ibrutinib]
Summary of the method: (§1)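 The values are log-two fold changes in thermal stability compared with solvent controls and come from duplicates. They were obtained by TMTpro 16plex LC-MS/MS, with channel sums equalised, on the supernatant after 21,000xg for 90 min. That supernatant came from crude K562 extract at 1 mg/mL protein treated with 10 μM compound for 30 min, heated for 3 min across 48°C-58°C, pooled and brought to 0.5% NP-40 at 4°C.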

[1] = compound: CC(=O)c1cnc2ccc(-c3cc(Cl)c(O)c(Cl)c3)nc2c1N[C@H]1CC[C@H](CN(C)C)CC1
Summary of the method: as §1

ralimetinib = compound: CC(C)(C)Cn1c(N)nc2ccc(-c3[nH]c(C(C)(C)C)nc3-c3ccc(F)cc3)nc21 [ralimetinib]
Summary of the method: as §1

[2] = compound: CC(C)(O)CC(=O)NCCn1ccc2ncnc(Nc3ccc(Oc4cccc(C(F)(F)F)c4)c(Cl)c3)c21
Summary of the method: as §1

[3] = compound: CC(C)C1=C2N=C(C=C(N2N=C1)NCC3=CC=CC=C3)NCCCCCCN
Summary of the method: as §1

[4] = compound: CC1=C(C(CC(=O)N1)C2=CC=C(C=C2)C(F)(F)F)C(=O)NC3=C(C=C4C(=C3)C=NN4)F
Summary of the method: as §1

[5] = compound: CC1=C(C2=C(C=C1)C(=O)C3=CC=CC=C3N2CCCN)C
Summary of the method: as §1

[6] = compound: CC1=C(C=C(C=C1)NC(=O)C2=CC(=CC=C2)C(C)(C)C#N)NC3=CC4=C(C=C3)N=CN(C4=O)C
Summary of the method: as §1

[7] = compound: CC1=C(C=C(C=C1)NC(=O)C2=CC(=CC=C2)N(C)C)NC(=O)C3=CC=C(C=C3)O
Summary of the method: as §1

[8] = compound: CC1=CC=C(C=C1)SC2=C3C=C(SC3=CN=C2)C(=O)N
Summary of the method: as §1

Measured: log2 fold change

CXCL14 (UniProt O95715)
inactive: ibrutinib -0.012

CTU2 (UniProt Q2VPK5)
inactive: ibrutinib 0.041 | [1] 0.003 | ralimetinib 0.055 | [2] 0.019 | [3] -0.004 | [4] 0.031 | [5] 0.012 | [6] -0.04 | [7] -0.012 | [8] 0.007

CRIP2 isoform 2 (UniProt P52943)
inactive: ibrutinib 0.214 | [1] 0.008 | ralimetinib -0.042 | [2] 0.131 | [3] -0.022 | [4] 0.05 | [5] 0.186 | [6] 0.082 | [7] 0.112 | [8] -0.07

CUTA isoform 2 (UniProt O60888)
inactive: ibrutinib 0.036 | [1] -0.013 | ralimetinib 0.01 | [2] -0.02 | [3] 0.013 | [4] -0.034 | [5] 0.036 | [6] 0.104 | [7] -0.016 | [8] 0.101

CRYZL1 (UniProt O95825)
inactive: ibrutinib -0.01 | [1] -0.004 | ralimetinib 0.007 | [2] -0.058 | [3] -0.023 | [4] -0.042 | [5] 0 | [6] 0.022 | [7] 0.018 | [8] -0.019

CTIF isoform 2 (UniProt O43310)
inactive: ibrutinib 0.007 | [1] 0.037 | ralimetinib -0.004 | [2] -0.026 | [3] -0.022 | [4] 0.038 | [5] -0.05 | [6] -0.012 | [7] 0.032 | [8] -0.014

CSPP1 (UniProt Q1MSJ5)
inactive: ibrutinib 0.052 | [1] 0 | ralimetinib 0 | [2] 0.026 | [3] -0.023 | [4] 0 | [5] -0.015 | [6] -0.074 | [7] -0.006 | [8] 0.084

CTDSP1 isoform 3 (UniProt Q9GZU7)
inactive: ibrutinib 0.009

CTCF (UniProt P49711)
inactive: ibrutinib -0.025 | [1] -0.024 | ralimetinib -0.004 | [2] -0.054 | [3] -0.008 | [4] -0.013 | [5] -0.026 | [6] 0.013 | [7] 0.017 | [8] 0.006

CUL2 isoform 2 (UniProt Q13617)
inactive: ibrutinib -0.004 | [1] 0.001 | ralimetinib 0.013 | [2] 0.002 | [3] -0.025 | [4] -0.008 | [5] 0.023 | [6] -0.007 | [7] -0.001 | [8] 0.012

CUX1 isoform 3 (UniProt P39880)
inactive: ibrutinib 0.073 | [1] 0.002 | ralimetinib 0.003 | [2] -0.061 | [3] 0.017 | [4] -0.022 | [5] 0.003 | [6] -0.051 | [7] 0.012 | [8] 0.005

CRBN (UniProt Q96SW2)
inactive: ibrutinib -0.015 | [1] -0.006 | ralimetinib 0.004 | [2] -0.045 | [3] -0.007 | [4] 0.01 | [5] -0.072 | [6] -0.006 | [7] -0.001 | [8] -0.022

CRK (UniProt P46108)
inactive: ibrutinib -0.009 | [1] -0.012 | ralimetinib 0.01 | [2] -0.041 | [3] 0.018 | [4] -0.008 | [5] -0.011 | [6] 0.035 | [7] 0.015 | [8] -0.021

CTSB (UniProt P07858)
inactive: ibrutinib 0.01 | [1] 0.015 | ralimetinib 0.008 | [2] -0.014 | [3] 0.013 | [4] -0.016 | [5] 0 | [6] -0.004 | [7] -0.013 | [8] 0.05

CRYAB (UniProt P02511)
inactive: ibrutinib -0.084 | [1] 0.029 | ralimetinib -0.103 | [2] -0.258 | [3] 0.114 | [4] -0.089 | [5] -0.217 | [6] 0.077 | [7] 0.032 | [8] -0.06

CSNK1G3 (UniProt Q9Y6M4)
active: [1] 0.529
inactive: ibrutinib -0.025 | ralimetinib 0.003 | [2] -0.048 | [3] -0.038 | [4] -0.007 | [5] 0.024 | [6] 0.031 | [7] -0.066 | [8] 0.132

CUL1 (UniProt Q13616)
inactive: ibrutinib 0.02 | [1] 0.005 | ralimetinib -0.004 | [2] -0.016 | [3] -0.018 | [4] -0.014 | [5] 0.016 | [6] 0.02 | [7] -0.001 | [8] -0.01

CSNK2A2 (UniProt P19784)
inactive: ibrutinib -0.015 | ralimetinib 0.012 | [2] -0.014 | [3] -0.01 | [4] -0.046 | [5] 0.185 | [6] -0.017 | [7] 0.003 | [8] 0
active: [1] 0.666

CRNKL1 (UniProt Q9BZJ0)
inactive: ibrutinib 0.029 | [1] 0.008 | ralimetinib 0.062 | [2] 0.006 | [3] -0.064 | [4] 0.028 | [5] -0.013 | [6] -0.218 | [7] 0.096 | [8] 0.03

CSTF2T (UniProt Q9H0L4)
inactive: ibrutinib 0.112 | [1] -0.017 | ralimetinib 0.016 | [2] -0.017 | [3] -0.004 | [4] 0.015 | [5] -0.004 | [6] -0.015 | [7] -0.023 | [8] -0.02

CTDP1 (UniProt Q9Y5B0)
inactive: ibrutinib 0.035 | [1] -0.021 | ralimetinib 0.047 | [2] -0.003 | [3] 0.012 | [4] 0.012 | [5] 0.001 | [6] 0.016 | [7] -0.023 | [8] -0.024

CWC27 (UniProt Q6UX04)
inactive: ibrutinib 0.035 | [1] -0.031 | ralimetinib 0.011 | [2] -0.017 | [3] 0.016 | [4] -0.035 | [5] 0.014 | [6] -0.005 | [7] -0.02 | [8] -0.002

CTTN isoform 2 (UniProt Q14247)
inactive: ibrutinib 0.039 | [1] -0.004 | ralimetinib 0.011 | [2] 0.021 | [3] -0.024 | [4] -0.005 | [5] 0 | [6] -0.011 | [7] 0.01 | [8] -0.008

CSNK2B (UniProt P67870)
inactive: ibrutinib -0.004 | ralimetinib 0.003 | [2] -0.013 | [3] 0 | [4] -0.054 | [5] 0.114 | [6] -0.004 | [7] -0.015 | [8] -0.016
active: [1] 0.408

CTNNA1 (UniProt P35221)
inactive: ibrutinib -0.027 | [1] -0.018 | ralimetinib -0.03 | [2] -0.059 | [3] 0.026 | [4] 0.026 | [5] -0.014 | [6] 0.023 | [7] 0 | [8] -0.026

CTH (UniProt P32929)
inactive: ibrutinib 0.028 | [1] -0.015 | ralimetinib 0.015 | [2] -0.009 | [3] 0.012 | [4] -0.026 | [5] 0.011 | [6] 0.033 | [7] -0.02 | [8] -0.026

CYCS (UniProt P99999)
inactive: ibrutinib 0.027 | [1] 0.024 | ralimetinib 0 | [2] 0.004 | [3] -0.016 | [4] -0.05 | [5] -0.005 | [6] 0.012 | [7] -0.015 | [8] 0.031

CTBP1 (UniProt Q13363)
inactive: ibrutinib 0.002 | [1] -0.021 | ralimetinib 0.024 | [2] -0.017 | [3] 0.041 | [4] -0.015 | [5] 0.007 | [6] 0.012 | [7] 0.008 | [8] 0.003

2 successive records already listed, quoted:
CSNK2B (UniProt P67870)
inactive: ibrutinib -0.004 | ralimetinib 0.003 | [2] -0.013 | [3] 0 | [4] -0.054 | [5] 0.114 | [6] -0.004 | [7] -0.015 | [8] -0.016
active: [1] 0.408

CTNNA1 (UniProt P35221)
inactive: ibrutinib -0.027 | [1] -0.018 | ralimetinib -0.03 | [2] -0.059 | [3] 0.026 | [4] 0.026 | [5] -0.014 | [6] 0.023 | [7] 0 | [8] -0.026

(listing goes on)

CUL7 isoform 2 (UniProt Q14999)
inactive: ibrutinib -0.096 | [1] 0.001 | ralimetinib -0.026 | [2] -0.103 | [3] 0.004 | [4] 0.063 | [5] -0.163 | [6] -0.017 | [7] -0.021 | [8] -0.179

CT45A10 (UniProt P0DMU9)
inactive: ibrutinib 0.004 | [1] -0.004 | ralimetinib 0.037 | [2] 0.035 | [3] 0.053 | [4] 0.018 | [5] 0.024 | [6] -0.043 | [7] -0.002 | [8] 0.008

CSNK1A1 (UniProt P48729)
inactive: ibrutinib -0.098 | [1] 0.148 | ralimetinib 0.088 | [2] -0.002 | [3] -0.035 | [4] -0.019 | [5] -0.002 | [6] -0.029 | [7] 0 | [8] 0.003
